Laboratory results as given in patent US10525115B2 (Immatics Biotechnologies GmbH, priority 2014, dated 2020).

B1: PPIL4 (protein, UniProt Q8WUA2 1-492, looked up)
Peptidyl-prolyl cis-trans …: MAVLLETTLGDVVIDLYTEERPRACLNFLKLCKIKYYNYCLIHNVQRDFIIQTGDPTGTGRGGESIFGQLYGDQASFFEAEKVPRIKHKKKGTVSMVNNGSDQHGSQFLITTGENLDYLDGVHTVFGEVTEGMDIIKKINETFVDKDFVPYQDIRINHTVILDDPFDDPPDLLIPDRSPEPTREQLDSGRIGADEEIDDFKGRSAEEVEEIKAEKEAKTQAILLEMVGDLPDADIKPPENVLFVCKLNPVTTDEDLEIIFSRFGPIRSCEVIRDWKTGESLCYAFIEFEKEEDCEKAFFKMDNVLIDDRRIHVDFSQSVAKVKWKGKGGKYTKSDFKEYEKEQDKPPNLVLKDKVKPKQDTKYDLILDEQAEDSKSSHSHTSKKHKKKTHHCSEEKEDEDYMPIKNTNQDIYREMGFGHYEEEESCWEKQKSEKRDRTQNRSRSRSRERDGHYSNSHKSKYQTDLYERERSKKRDRSRSPKKSKDKEKSKYR
B2: CHTF18 (protein, UniProt Q8WVB6 1-975, looked up)
Chromosome transmission …: MEDYEQELCGVEDDFHNQFAAELEVLAELEGASTPSPSGVPLFTAGRPPRTFEEALARGDAASSPAPAASVGSSQGGARKRQVDADLQPAGSLPHAPRIKRPRLQVVKRLNFRSEEMEEPPPPDSSPTDITPPPSPEDLAELWGHGVSEAAADVGLTRASPAARNPVLRRPPILEDYVHVTSTEGVRAYLVLRADPMAPGVQGSLLHVPWRGGGQLDLLGVSLASLKKQVDGERRERLLQEAQKLSDTLHSLRSGEEEAAQPLGAPEEEPTDGQDASSHCLWVDEFAPRHYTELLSDDFTNRCLLKWLKLWDLVVFGHERPSRKPRPSVEPARVSKEATAPGKWKSHEQVLEEMLEAGLDPSQRPKQKVALLCGPPGLGKTTLAHVIARHAGYSVVEMNASDDRSPEVFRTRIEAATQMESVLGAGGKPNCLVIDEIDGAPVAAINVLLSILNRKGPQEVGPQGPAVPSGGGRRRRAEGGLLMRPIICICNDQFAPSLRQLKQQAFLLHFPPTLPSRLVQRLQEVSLRQGMRADPGVLAALCEKTDNDIRACINTLQFLYSRGQRELSVRDVQATRVGLKDQRRGLFSVWQEVFQLPRAQRRRVGQDPALPADTLLLGDGDAGSLTSASQRFYRVLHAAASAGEHEKVVQGLFDNFLRLRLRDSSLGAVCVALDWLAFDDLLAGAAHHSQSFQLLRYPPFLPVAFHVLFASSHTPRITFPSSQQEAQNRMSQMRNLIQTLVSGIAPATRSRATPQALLLDALCLLLDILAPKLRPVSTQLYSTREKQQLASLVGTMLAYSLTYRQERTPDGQYIYRLEPNVEELCRFPELPARKPLTYQTKQLIAREIEVEKMRRAEASARVENSPQVDGSPPGLEGLLGGIGEKGVHRPAPRNHEQRLEHIMRRAAREEQPEKDFFGRVVVRSTAVPSAGDTAPEQDSVERRMGTAVGRSEVWFRFNEGVSNAVRRSLYIRDLL
B3: DGCR8 (protein, UniProt Q8WYQ5 1-773, looked up)
Microprocessor complex …: METDESPSPLPCGPAGEAVMESRARPFQALPREQSPPPPLQTSSGAEVMDVGSGGDGQSELPAEDPFNFYGASLLSKGSFSKGRLLIDPNCSGHSPRTARHAPAVRKFSPDLKLLKDVKISVSFTESCRSKDRKVLYTGAERDVRAECGLLLSPVSGDVHACPFGGSVGDGVGIGGESADKKDEENELDQEKRVEYAVLDELEDFTDNLELDEEGAGGFTAKAIVQRDRVDEEALNFPYEDDFDNDVDALLEEGLCAPKKRRTEEKYGGDSDHPSDGETSVQPMMTKIKTVLKSRGRPPTEPLPDGWIMTFHNSGVPVYLHRESRVVTWSRPYFLGTGSIRKHDPPLSSIPCLHYKKMKDNEEREQSSDLTPSGDVSPVKPLSRSAELEFPLDEPDSMGADPGPPDEKDPLGAEAAPGALGQVKAKVEVCKDESVDLEEFRSYLEKRFDFEQVTVKKFRTWAERRQFNREMKRKQAESERPILPANQKLITLSVQDAPTKKEFVINPNGKSEVCILHEYMQRVLKVRPVYNFFECENPSEPFGASVTIDGVTYGSGTASSKKLAKNKAARATLEILIPDFVKQTSEEKPKDSEELEYFNHISIEDSRVYELTSKAGLLSPYQILHECLKRNHGMGDTSIKFEVVPGKNQKSEYVMACGKHTVRGWCKNKRVGKQLASQKILQLLHPHVKNWGSLLRMYGRESSKMVKQETSDKSVIELQQYAKKNKPNLHILSKLQEEMKRLAEEREETRKKPKMSIVASAQPGGEPLCTVDV
B4: ATP8B4 (protein, UniProt Q8TF62 1-1192, looked up)
Probable …: MFCSEKKLREVERIVKANDREYNEKFQYADNRIHTSKYNILTFLPINLFEQFQRVANAYFLCLLILQLIPEISSLTWFTTIVPLVLVITMTAVKDATDDYFRHKSDNQVNNRQSEVLINSKLQNEKWMNVKVGDIIKLENNQFVAADLLLLSSSEPHGLCYVETAELDGETNLKVRHALSVTSELGADISRLAGFDGIVVCEVPNNKLDKFMGILSWKDSKHSLNNEKIILRGCILRNTSWCFGMVIFAGPDTKLMQNSGKTKFKRTSIDRLMNTLVLWIFGFLICLGIILAIGNSIWESQTGDQFRTFLFWNEGEKSSVFSGFLTFWSYIIILNTVVPISLYVSVEVIRLGHSYFINWDRKMYYSRKAIPAVARTTTLNEELGQIEYIFSDKTGTLTQNIMTFKRCSINGRIYGEVHDDLDQKTEITQEKEPVDFSVKSQADREFQFFDHHLMESIKMGDPKVHEFLRLLALCHTVMSEENSAGELIYQVQSPDEGALVTAARNFGFIFKSRTPETITIEELGTLVTYQLLAFLDFNNTRKRMSVIVRNPEGQIKLYSKGADTILFEKLHPSNEVLLSLTSDHLSEFAGEGLRTLAIAYRDLDDKYFKEWHKMLEDANAATEERDERIAGLYEEIERDLMLLGATAVEDKLQEGVIETVTSLSLANIKIWVLTGDKQETAINIGYACNMLTDDMNDVFVIAGNNAVEVREELRKAKQNLFGQNRNFSNGHVVCEKKQQLELDSIVEETITGDYALIINGHSLAHALESDVKNDLLELACMCKTVICCRVTPLQKAQVVELVKKYRNAVTLAIGDGANDVSMIKSAHIGVGISGQEGLQAVLASDYSFAQFRYLQRLLLVHGRWSYFRMCKFLCYFFYKNFAFTLVHFWFGFFCGFSAQTVYDQWFITLFNIVYTSLPVLAMGIFDQDVSDQNSVDCPQLYKPGQLNLLFNKRKFFICVLHGIYTSLVLFFIPYGAFYNVAGEDGQHIADYQSFAVTMATSLVIVVSVQIALDTSYWTFINHVFIWGSIAIYFSILFTMHSNGIFGIFPNQFPFVGNARHSLTQKCIWLVILLTTVASVMPVVAFRFLKVDLYPTLSDQIRRWQKAQKKARPPSSRRPRTRRSSSRRSGYAFAHQEGYGELITSGKNMRAKNPPPTSGLEKTHYNSTSWIENLCKKTTDTVSSFSQDKTVKL
B5: PHACTR3 (protein, UniProt Q96KR7 1-559, looked up)
Phosphatase and actin …: MAASEDGSGCLVSRGRSQSDPSVLTDSSATSSADAGENPDEMDQTPPARPEYLVSGIRTPPVRRNSKLATLGRIFKPWKWRKKKNEKLKQTTSALEKKMAGRQGREELIKKGLLEMMEQDAESKTCNPDGGPRSVQSEPPTPKSETLTSEDAQPGSPLATGTDQVSLDKPLSSAAHLDDAAKMPSASSGEEADAGSLLPTTNELSQALAGADSLDSPPRPLERSVGQLPSPPLLPTPPPKASSKTTKNVTGQATLFQASSMKSADPSLRGQLSTPTGSPHLTTVHRPLPPSRVIEELHRALATKHRQDSFQGRESKGSPKKRLDVRLSRTSSVERGKEREEAWSFDGALENKRTAAKESEENKENLIINSELKDDLLLYQDEEALNDSIISGTLPRKCKKELLAVKLRNRPSKQELEDRNIFPRRTDEERQEIRQQIEMKLSKRLSQRPAVEELERRNILKQRNDQTEQEERREIKQRLTRKLNQRPTVDELRDRKILIRFSDYVEVAKAQDYDRRADKPWTRLSAADKAAIRKELNEYKSNEMEVHASSKHLTRFHRP
B6: ANKS1A (protein, UniProt Q92625 2-1134, looked up)
Ankyrin repeat and SAM …: GKEQELLEAARTGHLPAVEKLLSGKRLSSGFGGGGGGGSGGGGGGSGGGGGGLGSSSHPLSSLLSMWRGPNVNCVDSTGYTPLHHAALNGHKDVVEVLLRNDALTNVADSKGCYPLHLAAWKGDAQIVRLLIHQGPSHTRVNEQNNDNETALHCAAQYGHTEVVKVLLEELTDPTMRNNKFETPLDLAALYGRLEVVKMLLNAHPNLLSCNTKKHTPLHLAARNGHKAVVQVLLDAGMDSNYQTEMGSALHEAALFGKTDVVQILLAAGTDVNIKDNHGLTALDTVRELPSQKSQQIAALIEDHMTGKRSTKEVDKTPPPQPPLISSMDSISQKSQGDVEKAVTELIIDFDANAEEEGPYEALYNAISCHSLDSMASGRSSDQDSTNKEAEAAGVKPAGVRPRERPPPPAKPPPDEEEEDHIDKKYFPLTASEVLSMRPRIHGSAAREEDEHPYELLLTAETKKVVLVDGKTKDHRRSSSSRSQDSAEGQDGQVPEQFSGLLHGSSPVCEVGQDPFQLLCTAGQSHPDGSPQQGACHKASMQLEETGVHAPGASQPSALDQSKRVGYLTGLPTTNSRSHPETLTHTASPHPGGAEEGDRSGARSRAPPTSKPKAELKLSRSLSKSDSDLLTCSPTEDATMGSRSESLSNCSIGKKRLEKSPSFASEWDEIEKIMSSIGEGIDFSQERQKISGLRTLEQSVGEWLESIGLQQYESKLLLNGFDDVHFLGSNVMEEQDLRDIGISDPQHRRKLLQAARSLPKVKALGYDGNSPPSVPSWLDSLGLQDYVHSFLSSGYSSIDTVKNLWELELVNVLKVQLLGHRKRIIASLADRPYEEPPQKPPRFSQLRCQDLLSQTSSPLSQNDSCTGRSADLLLPPGDTGRRRHDSLHDPAAPSRAERFRIQEEHREAKLTLRPPSLAAPYAPVQSWQHQPEKLIFESCGYEANYLGSMLIKDLRGTESTQDACAKMRKSTEHMKKIPTIILSITYKGVKFIDASNKNVIAEHEIRNISCAAQDPEDLCTFAYITKDLQTSHHYCHVFSTVDVNLTYEIILTLGQAFEVAYQLALQAQKSRATGASAAEMIETKSSKPVPKPRVGVRKSALEPPDMDQDAQSHASVSWVVDPKPDSKRSLSTN

Tested on: primary AML samples
Test: HLA class I ligandome analysis (W6/32 immunoaffinity purification, LC-MS/MS) of primary AML samples
Set-up: species or system human
Conditions: source protein (LiTAA); for Number of positive AMLs: AML patients (n=15); for rep. frequency: representation frequency in AML patients (n=15)

Molecule	Number of positive AMLs	rep. frequency
B1	3	[20.0%]
B2	3	[20.0%]
B3	3	[20.0%]
B4	3	[20.0%]
B5	3	[20.0%]
B6	3	[20.0%]
